Publication PMC6265295
Results are given in words; binding and its absence hold for the method and conditions named. In cells and extracts the contact can be indirect. Some binding calls cover weakened binding; strength is not graded here.

Molecular target: GFP-Rab35, Q15286
Experiment: co-IP; GFP-tagged proteins were immunoprecipitated from lysates of transfected H1299 cells (p53-/- or p53R273H) with an anti-GFP antibody conjugated to magnetic beads. Partners were detected by western blotting.
Conditions: remark: other sources report otherwise

B1: Podocalyxin (PODXL), endogenous, O00592 23-558 (protein)
chain: SPSPSPSPSQNATQTTTDSSNKTAPTPASSVTIMATDTAQQSTVPTSKANEILASVKATTLGVSSDSPGTTTLAQQVSGPVNTTVARGGGSGNPTTTIESPKSTKSADTTTVATSTATAKPNTTSSQNGAEDTTNSGGKSSHSVTTDLTSTKAEHLTTPHPTSPLSPRQPTSTHPVATPTSSGHDHLMKISSSSSTVAIPGYTFTSPGMTTTLLETVFHHVSQAGLELLTSGDLPTLASQSAGITASSVISQRTQQTSSQMPASSTAPSSQETVQPTSPATALRTPTLPETMSSSPTAASTTHRYPKTPSPTVAHESNWAKCEDLETQTQSEKQLVLNLTGNTLCAGGASDEKLISLICRAVKATFNPAQDKCGIRLASVPGSQTVVVKEITIHTKLPAKDVYERLKDKWDELKEAGVSDMKLGDQGPPEEAEDRFSMPLIITIVCMASFLLLVAALYGCCHQRLSQRKDQQRLTEELQTVENGYHDNPTLEVMETSSEMQEKKVVSLNGELGDSWIVPLDNLTKDDLDEEEDTHL
- binding: binds
